{
  "source": "PubChem BioAssay AID1259334",
  "about": "(Broad Institute, 2017)",
  "note": "This list was built around the results that the source calls inconclusive (neither active nor inactive); the mix of calls is not that of the screen. Activity calls are given as the source filed them. Rule as the data show it: active = AC50 below about 11 µM.",
  "data": [
    {"experiment": "TNFa pathway inhibition counter-screen, B-lineage cells – dose response (AID 1259334);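 also: cells stimulated with TNFa after compound preincubation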", "conditions": "B cell line, TNFa signaling counterscreen reporter, active compounds read low; at 10 µM unless noted", "values": [
      {"smiles": "C(=Cc1c[nH]c2ccccc12)c1nccc2ccccc12", "max activity": "inconclusive: 92.2% [at 0.042 µM]"},
      {"smiles": "CCCNC(=O)N1[C@H](CO)[C@H](c2ccc(/C=C/c3ccccc3)cc2)[C@@H]1C#N", "max activity": "inactive: 45.4%"},
      {"smiles": "C[C@@H]1CN([C@@H](C)CO)C(=O)c2ccccc2-c2ccccc2CO[C@@H]1CN(C)Cc1ccccc1C(F)(F)F", "max activity": "inconclusive: -43%"},
      {"smiles": "Cc1nc(-c2ccc(OCC(C)C)c(C#N)c2)sc1C(=O)O", "max activity": "inconclusive: 101% [at 0.042 µM]"},
      {"smiles": "COc1ccc(S(=O)(=O)N(C)C[C@@H]2Oc3ccc(NC(=O)Nc4ccc(C(F)(F)F)cc4)cc3C(=O)N([C@H](C)CO)C[C@H]2C)cc1", "max activity": "inconclusive: 1.14%"},
      {"smiles": "N#C[C@H]1[C@H](c2ccc(C#Cc3ccccc3F)cc2)[C@@H](CO)N1C(=O)C1CC1", "max activity": "inactive: -17.4% [at 3.5 µM]"},
      {"smiles": "Nc1cccc2nc3ccccc3cc12", "max activity": "inconclusive: 182% [at 3.5 µM]"},
      {"smiles": "O=C(NCc1ccccn1)C1CCCN(S(=O)(=O)c2ccccc2)C1", "note": "(configuration not stated)", "max activity": "inactive: 18.3% [at 1.1 µM]"},
      {"smiles": "Cc1noc(C)c1S(=O)(=O)Nc1ccc2c(c1)C(=O)N([C@H](C)CO)C[C@H](C)[C@@H](CN(C)C(=O)Nc1cccc3ccccc13)OCCCC[C@H](C)O2", "max activity": "inconclusive: 26.6%"},
      {"smiles": "CC(=O)[C@]1(O)Cc2c(O)c3c(c(O)c2[C@@H](O[C@H]2C[C@H](N)[C@H](O)[C@H](C)O2)C1)C(=O)c1ccccc1C3=O", "max activity": "inconclusive: 827% [at 0.12 µM]"},
      {"smiles": "C[C@@H]1CN([C@H](C)CO)C(=O)c2c(c3ccccc3n2C)-c2ccccc2CO[C@H]1CN(C)C(=O)Nc1cccc(Cl)c1Cl", "max activity": "inconclusive: -64.7%"},
      {"smiles": "C[C@H]1CN([C@@H](C)CO)C(=O)c2c(c3ccccc3n2C)-c2ccccc2CO[C@H]1CN(C)S(=O)(=O)c1ccc([N+](=O)[O-])cc1", "max activity": "inconclusive: -13.4%"},
      {"smiles": "Cc1ccccc1-c1ccc(C2[C@@H]3CN(C(=O)Nc4cccc(F)c4)C[C@H]2N3)cc1", "note": "(some centres not stated)", "max activity": "inactive: -14.6% [at 0.0135 µM]"},
      {"smiles": "C/C=C/c1ccc(C2[C@H]3CNC[C@@H]2N3Cc2cccc(OC)c2)cc1", "note": "(some centres not stated)", "max activity": "inconclusive: 0.652%"},
      {"smiles": "COc1ccc(CN2CC3(CN(S(=O)(=O)c4ccc(C)cc4)C3)c3c([nH]c4cc(OC)ccc34)[C@H]2CO)cc1", "max activity": "inactive: 14.8% [at 0.042 µM]"},
      {"smiles": "O=C1Cc2c([nH]c3ccc(Br)cc23)-c2ccccc2N1", "max activity": "inconclusive: 53.6% [at 0.0135 µM]"},
      {"smiles": "CC(C(=O)O)c1ccc(N2Cc3ccccc3C2=O)cc1", "note": "(configuration not stated)", "max activity": "inconclusive: -46.9%"}
    ]}
  ]
}
